Assay results as given in PMC10163288.
Some of the results follow.

B1: il10ra_site1_normal_mot_HHH_b1_05672_af2_000000246_0001_1_19_H_._HHH_b2_02879_af2_0001_0000300014_0000001_0 (protein)
chain: SSSSDEEQRVAELLLRVVRLLFEGNPEEAEEVLKEARRLAEELGDEELERYVEIAENFVRSSSSS
B2: il10ra_site1_sap_30_mot_HHH_b2_00573_000000208_0001_39_53_H_._HHH_b2_07961_0001_0000300034_0000001_0_0001 (protein)
chain: SSSSDEALERAWELSRRVLELIRQGDEEEAERLLEELKELAEESNDPILRYIVEALERLLGSSSS
B3: il10ra_site1_sap_20_mot_HHH_b2_02736_000000092_0001_22_38_H_._HHH_b2_05462_af2_0001_0000300019_0000001_0_0001 (protein)
chain: SSSSSSDKTQEVFELIEEAMQIPDEEEAREVLEEAQRIAEELGNRLLVIQLEFLLRLTSSSSSSS
B4: il10ra_site1_sap_25_mot_HHH_b2_02497_000000141_0001_1_20_H_._HHH_b1_05800_0001_0000200016_0000001_0_0001 (protein)
chain: SSSSDVEERLEEFIEEEARRLNSQLLEQTLKYAIEVELEWGASEEEIEEFLERMIRQIEELSSSS
B5: il10ra_site1_sap_17_mot_HHH_b1_06348_000000162_0001_1_15_H_._HHH_b2_06921_0001_0000200013_0000001_0_0001 (protein)
chain: SSSSSDEEILEKSVRLLLEAAKRIPDPEYAELSLRFAKASVEAQNDEELKELVERAEEELSSSSS
B6: il10ra_site1_normal_mot_HHH_b2_08186_000000021_0001_43_56_H_._HHH_b1_08152_af2_0001_0000200016_0000001_1 (protein)
chain: SSSSDEEEEELEELLEQLERLLREGDRERFLRLIQRALQLAYRASDPEVLQRLWELAREFASSSS
B7: il10ra_site1_normal_mot_0750aae41c39e4229e2ea8fa354cc919_0001_1_000000144_0001_37_51_H_._ems_3hC_921_0001_af2_0001_0000100007_0000001_0 (protein)
chain: SSPEEAQKLLEQAEELAEEQNDEKALEAVRFWKELDEAAARRNDERVVRSVARAARALLELLQES
B8: il10ra_site1_normal_mot_HHH_b2_00612_000000251_0001_1_14_H_._HHH_b2_05838_af2_0001_0000100003_0000001_0_af2pred_0001 (protein)
chain: SSSSSDEAFKFAREVIEELLELAKKDERKVEELSEEAEKRLRELGNELAARSIKFFAERLSSSSS
B9: il10ra_site1_sap_25_mot_HHH_b1_05254_000000006_0001_1_19_H_._HHH_b2_07878_0001_0000100014_0000002_0_0001 (protein)
chain: SSSSDEEKERVEELLEEAEELAKEGDPREAARVLLEAVRLALHLGDPELLQLVWELVHRLASSSS
B10: il10ra_site1_sap_22_mot_HHH_b1_00999_000000080_0001_41_55_H_._HHH_b2_04871_af2_0001_0000400010_0000001_0_0001 (protein)
chain: SSSDEEEERARELLEEAEELFEKGNPHEAARVFQEAMRVAAEGGDEELMREIQRLSMELQRSSSS
B11: il10ra_site1_sap_22_mot_HHH_b2_06480_af2_000000075_0001_1_18_H_._HHH_b2_07088_0001_0000300019_0000001_0_0001 (protein)
chain: SSSSSDKEVERLLEEAEELLEEGNPEEAIHVLLEAVRLALEEGDEELLQEVWELVLRLAHSSSSS
B12: il10ra_site1_normal_mot_HHH_b2_06142_af2_000000101_0001_1_18_H_._HHH_b2_05708_0001_0000300027_0000002_0_af2pred_0001 (protein)
chain: SSSSDLEELLKILAQLSRRVSEELAREILRAIVEALHLRLNGNPEEARKVLEEAIEEAEKSSSSS
B13: il10ra_site1_sap_24_mot_HHH_b2_00441_000000175_0001_1_18_H_._HHH_b2_02636_0001_0000300021_0000001_0_0001 (protein)
chain: SSSSDELEELVEAAMRLAEQAAENGDPRAARLLLRALLQLLERENSPLFEEVEELLERIEESSSS
B14: il10ra_site1_normal_mot_e1dd4851c59bc1cdde016f988f6856bd_0001_1_000000200_0001_16_31_H_._HHH_eva_0684_0001_0000200010_0000001_0_af2pred_0001 (protein)
chain: SSSSSSTEEEIERIVRELAEEFGLSEEAIRAVEIAAKRNGASERDIELMIRFLALTKKSSSSSSS
B15: il10ra_site1_sap_22_mot_HHH_b1_03314_af2_000000278_0001_42_55_H_._HHH_b2_06353_af2_0001_0000300009_0000002_0_0001 (protein)
chain: SSSSSEEEREYAERALRFARALYEAGDPEAARALLELMAEVLRRLGNEELLEEVEELLEELSSSS
B16: il10ra_site1_sap_16_mot_2fa031a62b9321f410fa37cb4b35ac9e_0001_af2_000000160_0001_1_14_H_._HHH_b1_01244_0001_0000200012_0000001_0_0001_af2pred_0001 (protein)
chain: SSSSSDNEELVELIRRIAELLAEGDEEEAKELIEEVKKLAEELNNEIARVIAEFLERHQNSSSSS
B17: il10ra_site1_normal_mot_HHH_b2_00622_af2_000000153_0001_40_57_H_._HHH_b1_06107_0001_0000200021_0000001_0_af2pred_0001 (protein)
chain: SSSSSHVEEALRRLIRAARRLLELGNPELAELALRFAKRAAEHANDEEVLKEIEELLEELSSSSS
B18: il10ra_site1_normal_mot_HHH_b1_05317_af2_000000220_0001_43_57_H_._HHH_b2_06830_0001_0000200012_0000001_0 (protein)
chain: SSSSTEAFEIAKKAAELLKELLKEGDPEEAEKVLEEARELLEEANNEIAVRQLEFFFRREKSSSS
B19: il10ra_site1_sap_21_mot_HHH_b1_02062_000000185_0001_1_20_H_._HHH_b2_04055_0001_0000100005_0000001_0_0001 (protein)
chain: SSSSDDEELAVRFHVRLIEQALEQNNEEHVKSALRALRALAELINDPEAQELLEELEELLESSSS
B20: il10ra_site1_normal_mot_HHH_b1_01011_000000096_0001_1_19_H_._HHH_b2_00624_0001_0000200017_0000001_0 (protein)
chain: SSSSSEEEEYLRLSLRFARFLLEEGDPEAARRVLHAAEDIARKLGNEELLEEIEELLEKAGSSSS
B21: il10ra_site1_normal_mot_HHH_b2_00984_000000042_0001_1_20_H_._HHH_b1_02776_0001_0000400039_0000001_0 (protein)
chain: SSSSDLEEEIEKLLEELEELIKEGDHERILELALEILRLIYEAKNAELLQRLWELIKRFASSSSS
B22: il10ra_site1_sap_18_mot_HHH_b2_02927_000000097_0001_42_56_H_._HHH_b1_04520_af2_0001_0000600010_0000002_0_0001_af2pred_0001 (protein)
chain: SSSSEAEKIALEALVKAERLLQRGNPEEAEKVLEEAEEELRELNDPRAVLIIELALRLIRESSSS
B23: il10ra_site1_normal_mot_HHH_b1_01879_000000050_0001_1_18_H_._HHH_b1_00882_0001_0000100001_0000001_0_af2pred_0001 (protein)
chain: SSSSDREKLLQLIARAIALAQRLNDEETAKRLFELLIRFYRHGDPRYAEEAEELREELEGSSSSS
B24: il10ra_site1_normal_mot_HHH_b2_00984_000000042_0001_1_20_H_._96901828190b971c916e7b6b8058f7b9_0001_1_0001_0000100002_0000001_0 (protein)
chain: PEQEVARRLLQLAFREGDPKLLQALWKLIKRAFEGDPEAEELLEEVAELLKKDEEEAKRLLKELG
B25: il10ra_site1_normal_mot_HHH_b2_01999_000000006_0001_1_18_H_._HHH_b1_07352_af2_0001_0000100004_0000001_0 (protein)
chain: SSSSTEVQEIVAEAIRLAIRLSDEEIFQELYELFRKYIEEGDERYQEELEELLEELRERLSSSSS
B26: il10ra_site1_sap_10_mot_6d7a5e300d552f8fe4195b5ca7ab279b_0001_000000114_0001_17_31_H_._06d841987633609111226104c7934927_0001_1_af2_0001_0000400003_0000002_0_000 … (protein)
chain: SSSSSDEEELVEAAFRIAEQALEYGDEERFRALLIALELIAEEANDPEARRLVEELEELGSSSSS
B27: il10ra_site1_normal_mot_ems_3hM_3349_af2_000000045_0001_25_42_H_._26de121311cec1c6b0b9f4dad300ffe3_0001_1_0001_0000100004_0000001_0 (protein)
chain: SEEERIEEILREAGVPPELVRLVVLAFELQLRQGSPPELILRALKLQARARGDPRLEEALELIEK
B28: il10ra_site1_sap_12_mot_HHH_b2_02693_af2_000000213_0001_19_35_H_._HHH_b2_04018_af2_0001_0000100002_0000002_0_0001 (protein)
chain: SSSSSEEEERVLELLREVFRLALRGNPEEARKVLEEAKELAEEIGDERALKMIEDLERSISSSSS
B29: il10ra_site1_sap_7_mot_4271555111f650dfcc09ceace45bed71_0001_1_000000133_0001_37_51_H_._923fb7134a056606f9ad410cad792901_0001_af2_0002_0000100001_0000001_0_0001 (protein)
chain: SSSSEVDEVYRLLEEILELLAQGDTDRVRELLEEIEELIEKLGNWSMRFSLKVLERELELLESSS
B30: il10ra_site1_normal_mot_HHH_b2_07579_000000077_0001_1_19_H_._HHH_b2_08153_0001_0000100009_0000002_0_af2pred_0001 (protein)
chain: SSSSTELAEEVFKILRRVAELRAQGNPEEAEELVQEALEIAEKAGNLILRISAETLLRQISSSSS
B31: il10ra_site1_sap_17_mot_HHH_b2_04013_af2_000000040_0001_22_39_H_._HHH_b1_00889_0001_0000200037_0000001_0_0001 (protein)
chain: SSSSSDAAREIYELSRRALELMAEGDPEQARELLEEALELAEENNNQVFAHAIRLLLEELSSSSS
B32: il10ra_site1_sap_24_mot_HHH_b1_02492_000000051_0001_1_21_H_._HHH_b2_03638_0001_0001100097_0000001_0_0001 (protein)
chain: SSSSDEAVQEALRLVLEAFRLLLRGDEEEARKLLEEALRLAEEANDPRARMAIEDLLKILNSSSS
B33: il10ra_site1_normal_mot_HHH_b1_01082_af2_000000031_0001_3_19_H_._HHH_b1_06064_0001_0000200007_0000001_0 (protein)
chain: SSSSSYEEVKKLIERIVELLRRGDHEEAEKLIRELEELAEELNNPSLRFVVRLLEEVLERLSSSS
B34: il10ra_site1_normal_mot_HHH_b2_04131_000000071_0001_1_16_H_._HHH_b2_02423_af2_0001_0000200002_0000002_0 (protein)
chain: SSSSSSDEELQRLLHELLRLYLKGDPRVEEVAEELRELAEELNNEVARFIVEAVERRLSSSSSSS
B35: il10ra_site1_sap_19_mot_HHH_b1_08133_000000195_0001_1_19_H_._HHH_b2_01218_0001_0000400019_0000002_0_0001 (protein)
chain: SSSSDEEEEESEELLERLEELLRRGDQERFIKLAAEIVRFAYEVNDEELLRAVWRLVREFASSSS
B36: il10ra_site1_normal_mot_HHH_b2_02337_000000026_0001_38_52_H_._HHH_b2_08324_0001_0000500027_0000001_1 (protein)
chain: SSSSSDEEEEEVEELIEEAKRIPDPRESSRVLQRAVRIAIRANNEELLQEIWRLVQKLASSSSSS
B37: il10ra_site1_sap_23_mot_HHH_b1_06816_000000239_0001_1_19_H_._HHH_b1_00588_0001_0000100026_0000001_0_0001 (protein)
chain: SSSTEEFERVYRLLRKAVELDHEGDPEEAQRVLEEARELAEELGDMLLKEQIKFLEREIERSSSS

target: il10ra, Q13651; experiment: yeast display titration

Apparent Kd, inactive:
B1 no binding seen, B2 no binding seen, B3 no binding seen, B4 no binding seen, B5 no binding seen, B6 no binding seen, B7 no binding seen, B8 no binding seen, B9 no binding seen, B10 no binding seen, B11 no binding seen, B12 no binding seen, B13 no binding seen, B14 no binding seen, B15 no binding seen, B16 no binding seen, B17 no binding seen, B18 no binding seen, B19 no binding seen, B20 no binding seen, B21 no binding seen, B22 no binding seen, B23 no binding seen, B24 no binding seen, B25 no binding seen, B26 no binding seen, B27 no binding seen, B28 no binding seen, B29 no binding seen, B30 no binding seen, B31 no binding seen, B32 no binding seen, B33 no binding seen, B34 no binding seen, B35 no binding seen, B36 no binding seen, B37 no binding seen
